This series relates to human platelets. The series can be described thus: Loading of platelets with trehalose, quantified by anthrone reaction. In kind it is cell-based. Particulars: 37° C., incubation period of 4 hours, time course; external concentration 25 mM. Here is the method: Loading of Platelets with Trehalose. Washed platelets in a concentration of 1-2 10^9 platelets/ml were incubated at various temperatures in the presence of 1-20 mg/ml trehalose. Incubation temperatures were chosen from 4° C. to 37° C. Incubation times were varied from 0.5 to 4 hours. After incubation the platelet solutions were washed in buffer A two times (by centrifugation at 14,000 RPM for 20 s in a table centrifuge). Platelet counts were obtained on a coulter counter. Platelets were pelleted (45 S at 14,000 RPM) and sugars were extracted from the pellet using 80% methanol. The samples were heated for 30 minutes at 80° C. […] The amount of trehalose in the platelets was quantified using the anthrone reaction (Umbreit et al., Mamometric and Biochemical Techniques, 5th Edition, 1972). […] Then the samples were cooled on ice and the absorbance was measured at 620 nm on a Perkin Elmer spectrophotometer. The amount of platelet associated trehalose was determined using a standard curve of trehalose.
Quantification of Trehalose and LYCH Concentration. Uptake was calculated for each sample as micrograms of trehalose or LYCH per platelet. The internal trehalose concentration was calculated assuming a platelet radius of 1.2 μm and by assuming that 50% of the platelet volume is taken up by the cytosol (rest is membranes). […]

Regarding `OC[C@H]1O[C@H](O[C@H]2O[C@H](CO)[C@@H](O)[C@H](O)[C@H]2O)[C@H](O)[C@@H](O)[C@@H]1O` [trehalose], the loading efficiency stood at 61%.
